{"source": "patent US5061729A", "about": "“Pharmaceutical composition and process for preparing the same” (priority 1988, dated 1991)", "origin": "cited, not measured here", "details": "with sulfhydryl-containing compounds, particularly acetylcysteine; cited from earlier work", "data": [{"smiles": "CC1=C(C(=O)O)N2C(=O)[C@@H](NC(=O)[C@H](N)c3ccccc3)[C@H]2SC1", "note": "[cephalexin]", "values": [{"measurement": "influence of sulfhydryl-containing compounds on absorption from the stomach", "value": "certain but not significant extent of retardation"}]}]}
